From PubChem BioAssay AID624297 (National Center for Advancing Translational Sciences (NCATS), 2012)
Out of some 340,000 compounds screened, about 6,200 (1.8%) were called active. Inconclusive means that the source gave no clear call. Such entries were picked first, then a sample of the others. Calls follow the shape of the dose curve; as a rule, active = well fitted activation curve with a large enough effect; inconclusive = small, poorly fitted or top-dose-only effect; inactive = no such curve, though single readings can be large or run the other way. Potencies beside an inconclusive call are fits to weak or partial responses and may not hold up.
Potency is read from the fitted curve at half-maximal effect.

Test: A quantitative high throughput screen for small molecules that induce DNA re-replication in SW480 colon adenocarcinoma cells. Also: nearly all actives have a fitted effect of over 55% in size.
Conditions: Hoechst DNA content imaging, 48 h; series mostly up to 46.1 µM
Summary of the method: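 Treated cells incubate 48 hr (37 C, 5% CO2), are stained 40 min with Hoechst, and nuclear fluorescence is enumerated; a rise in nuclei with high DNA signal marks re-replication.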
For COc1ccc(-c2cc3ccccc3n2CC(O)CN2CCCCC2)cc1 (centres undefined), the Potency was inconclusive: 29.1 µM [activator, single point].
With Cc1cccc(N2C(=O)CC(Cn3nc(C)cc3C)C2=O)c1 (centres undefined) the Potency was “inactive”.
For CC(=O)Nc1ccc(-c2csc(-c3cccnc3)n2)cc1, the Potency was “inactive”.
With COc1cc(OC)cc(C(=O)NCC(=O)OCC(=O)Nc2ccc3c(c2)OCO3)c1 the Potency was inconclusive: 2.91 µM [activator, partial curve, poor fit].
With CC(O)CSc1nc2c(c(=O)[nH]c(=O)n2C)n1Cc1ccccc1Cl (centres undefined) the Potency was “inactive”.
With Cc1ccc(NC(=O)Nc2sc(=S)n(C)c2C)cc1 the Potency was inconclusive: 22.4 µM [activator, single point].
For O=C(Nc1cccc2ncccc12)c1ccc(Br)c([N+](=O)[O-])c1, the Potency was “inactive”.
For NC(=S)NNc1cccc2cccnc12, the Potency was inconclusive: 29.1 µM [activator, single point].
In the case of Cc1ccc(Nc2nc(NCCO)c3ccccc3n2)cc1C, the Potency was inconclusive: 16.4 µM [activator, single point].
For O=C(Cn1c(NCCCO)nc2ccccc21)c1cccc(Br)c1, the Potency was inconclusive: 32.6 µM [activator, single point].
With Cc1noc(C)c1C(=O)N(CC(=O)Nc1ccc(Cl)c(C(F)(F)F)c1)Cc1ccco1 the Potency was inconclusive: 10.3 µM [activator, partial curve, poor fit].
With COc1cc(/C=N/NC(=O)c2ccc(Cl)c(S(N)(=O)=O)c2)ccc1OCC(N)=O the Potency was inconclusive: 20.6 µM [activator, single point].
In the case of Nc1nc(N)nc(-c2ccccc2O)n1, the Potency was inconclusive: 29.1 µM [activator, partial curve, poor fit].
For Cc1ccc(Nc2nc(-c3ccc(S(=O)(=O)N4CCOCC4)cc3)cs2)cc1, the Potency was inconclusive: 35.5 µM [activator, partial curve, poor fit].
In the case of CCn1c(C)nc2cc(C(=O)NNC(=S)Nc3ccccc3Cl)ccc21, the Potency was “inactive”.
In the case of COc1cc(OC)c2c(-c3cccc(-c4ccc(F)c(Cl)c4)c3)cc(=O)oc2c1, the Potency was inconclusive: 23.1 µM [activator, single point].
With CC(CNCCCn1ccc(NC(=O)OCc2ccccc2)nc1=O)c1ccccc1 (centres undefined) the Potency was inconclusive: 0.0046 µM [activator, full curve, poor fit].
For Cc1cc(/C=N\NC(=O)CC(=O)NC2CCCCC2)c(C)n1-c1cccc(Cl)c1Cl, the Potency was inconclusive: 0.164 µM [activator, full curve, poor fit].
In the case of CN1CCN(c2cc(N3CCc4ccccc4C3)c(F)cc2[N+](=O)[O-])CC1, the Potency was inconclusive: 35.5 µM [activator, single point].
For CC1(C)CC(=O)C(/C=N/c2ccccn2)=C(O)C1, the Potency was inconclusive: 29.1 µM [activator, single point].
In the case of C[C@H](CO)N1C[C@H](C)[C@@H](CN(C)S(=O)(=O)c2ccccc2)Oc2c(NC(=O)c3ccncc3)cccc2C1=O, the Potency was inconclusive: 0.116 µM [activator, full curve, poor fit].
In the case of COC(=O)c1cccc(Oc2nc3c(c(=O)n(C)c(=O)n3C)n2Cc2ccc(C)cc2)c1, the Potency was inconclusive: 14.6 µM [activator, partial curve, poor fit].
For Cc1cnc(C(=O)Nc2ccc(S(=O)(=O)NCC(C)C)cc2)cn1, the Potency was inconclusive: 0.259 µM [activator, full curve, poor fit].
With O=C(NCCCN1CCc2ccccc2C1)Nc1ccc(Cl)cc1 the Potency was “inactive”.
In the case of O=C(Nc1cccc(C(F)(F)F)c1)c1cncs1, the Potency was inconclusive: 0.517 µM [activator, full curve].
For Cc1ccc2nc(/C(C#N)=C\c3ccc(Oc4ccc(C(F)(F)F)cc4[N+](=O)[O-])cc3)[nH]c2c1, the Potency was active: 13 µM.
In the case of COc1ccc(NC(=O)c2cccc(OC(=S)N3CCOCC3)c2)cc1, the Potency was “inactive”.
With COCCC(=O)N1CCc2c([nH]c3ccccc23)C1C(C)(C)C (centres undefined) the Potency was “inactive”.
In the case of CC(C)c1ccc(C=NNc2ccc([N+](=O)[O-])cn2)cc1, the Potency was inconclusive: 18.4 µM [activator, single point].
With COc1ccc(/C=C/c2nc3cc(-c4ccccc4)ccc3o2)cc1O the Potency was active: 18.4 µM.
For CCN(CC)S(=O)(=O)c1ccc(N2CCOCC2)c(NC(=O)Cc2ccccc2)c1, the Potency was “inactive”.
For CSc1ccc(S(=O)(=O)Nc2ccc3c4c(cccc24)CC3)cc1, the Potency was inconclusive: 29.1 µM [activator, single point].
With CCOCCCn1c(SCc2ccccc2)nnc1-c1ccncc1 the Potency was “inactive”.
With O=C(NC1=C(Nc2ccc(F)cc2)C(=O)c2ccccc2C1=O)c1ccc(Cl)cc1 the Potency was inconclusive: 29.1 µM [activator, single point].
With Cc1cn(CC(=O)NCC(c2ccccc2)c2ccccc2)c(=O)[nH]c1=O the Potency was “inactive”.
For COc1cc(NC(=O)C(C)C)ccc1NC(=O)c1cc2ccccc2o1, the Potency was “inactive”.
In the case of CC(=O)Nc1ccc(S(=O)(=O)NC2CC3CCC2C3)cc1 (centres undefined), the Potency was inconclusive: 29.1 µM [activator, single point].
With Cc1ccc(NC(=O)CSc2nc(NS(=O)(=O)c3ccccc3)cc(=O)[nH]2)cc1 the Potency was “inactive”.
With COc1ccc(CNC(=O)c2ccc(CS(=O)(=O)Cc3ccccc3F)o2)cc1 the Potency was “inactive”.
In the case of Oc1ccc(C(=S)N2CCN(c3cccc(Cl)c3)CC2)cc1, the Potency was inconclusive: 29.1 µM [activator, partial curve, poor fit].
With CCCCOc1ccc(C(=O)NCC(=O)NCC(c2cccs2)N2CCOCC2)cc1 (centres undefined) the Potency was “inactive”.
In the case of CCCc1cc(-c2n[nH]c(=S)n2Cc2ccccc2)cs1, the Potency was inconclusive: 29.1 µM [activator, single point].
In the case of CCOc1ccccc1Nc1nnc(SCC(=O)NC2CCS(=O)(=O)C2)s1 (centres undefined), the Potency was “inactive”.
With COc1ccc(-c2n[nH]c(=S)n2N)c(OC)c1 the Potency was “inactive”.
For CCOC(=O)c1cccc(NC(=O)c2c(NCc3ccccc3)[nH]c(=O)[nH]c2=O)c1, the Potency was inconclusive: 29.1 µM [activator, single point].
For COc1ccc(N2C(=O)CC2(C#N)c2ccc(OCc3ccccc3)cc2)cc1 (centres undefined), the Potency was inconclusive: 0.116 µM [activator, full curve, poor fit].
In the case of COC(=O)C(C)Sc1nc(NCc2ccccc2)nc(N(C)C)n1 (centres undefined), the Potency was inconclusive: 4.61 µM [activator, full curve, poor fit].
With NNC(=O)c1ccncc1 the Potency was inconclusive: 0.794 µM [activator, full curve, poor fit].
In the case of O=C(CS(=O)(=O)c1ccc(F)cc1)Nc1nnc(-c2cccs2)o1, the Potency was “inactive”.
With NC(=O)c1nsc(C(=O)N(Cc2ccc(F)cc2)C(C(=O)NCC2CCCO2)c2ccc(F)cc2)c1N (centres undefined) the Potency was “inactive”.
With O=C(c1cnc(-c2ccccc2)s1)c1ccc(Cl)cc1Cl the Potency was “inactive”.
In the case of COc1ccc(NC(=O)CN(C)S(=O)(=O)c2ccc3c(c2)CC(C)N3C(C)=O)cc1OC (centres undefined), the Potency was inconclusive: 0.82 µM [activator, partial curve].
For CCOC(=O)c1cc2c(=O)n3cccc(C)c3nc2n(Cc2ccco2)c1=NC(=O)c1ccccc1, the Potency was inconclusive: 18.4 µM [activator, single point].
In the case of O=C(CSc1nnc(-c2ccc([N+](=O)[O-])cc2)o1)Nc1ccccn1, the Potency was inconclusive: 0.231 µM [activator, full curve, poor fit].
With COC(=O)c1ccccc1NC1=C/C(=N\S(=O)(=O)c2cccs2)c2ccccc2C1=O the Potency was active: 4.61 µM.
With Cc1ccc(C(=O)N2CC(=O)Nc3ccc(F)cc3C2c2ccc(F)cc2)cc1[N+](=O)[O-] (centres undefined) the Potency was inconclusive: 25.9 µM [activator, single point].
In the case of COc1ccccc1/C=C1\SC(=O)N(CCC(=O)NNC(=O)c2ccccc2Cl)C1=O, the Potency was inconclusive: 29.1 µM [activator, single point].
In the case of Cc1ccc(Nc2nc(N)c(C#N)c(CC#N)c2C#N)cc1, the Potency was inconclusive: 32.6 µM [activator, partial curve, poor fit].
With COc1ccc(Oc2ccc(NC(=O)c3ccccc3C)cc2)cc1 the Potency was inconclusive: 20.6 µM [activator, single point].
In the case of O=C(NCc1ccco1)Nc1ccc2nsnc2c1, the Potency was inconclusive: 6.51 µM [activator, single point].
For O=C(NC(NC(=S)Nc1ccccc1C(=O)O)C(Cl)(Cl)Cl)c1ccco1 (centres undefined), the Potency was inconclusive: 1.84 µM [activator, single point].
In the case of Cn1nnnc1Sc1ncnc2scc(-c3ccc(-c4ccccc4)cc3)c12, the Potency was inconclusive: 11.6 µM [activator, partial curve].
With C[C@@]12C(=O)Nc3cc(Cl)ccc3C(=O)N1[C@H]1c3cc(Cl)ccc3OC[C@@H]1[C@@H]2c1ccccc1 the Potency was inconclusive: 29.1 µM [activator, single point].
With CCOc1cc(C=O)cc(Cl)c1OCC(N)=O the Potency was “inactive”.
With COc1cc(OC)c(C2=NOC(C(=O)NCc3cccs3)C2)cc1Cl (centres undefined) the Potency was active: 9.2 µM.
For Cc1[nH]n(-c2ccc([N+](=O)[O-])cc2)c(=O)c1C=NCCc1ccc(S(N)(=O)=O)cc1, the Potency was inconclusive: 29.1 µM [activator, single point].
For C/C(=N\NC(=S)NCCc1ccccc1)c1ccc(Cl)cc1Cl, the Potency was inconclusive: 10.3 µM [activator, partial curve].
In the case of Cc1cccc(C)c1NC(=O)c1nc(S(=O)(=O)Cc2ccccc2)ncc1Cl, the Potency was inconclusive: 2.91 µM [activator, single point].
For CCOC(=O)c1c(C)[nH]c(C2=NNC(=Nc3ccc(OCC)cc3)SC2)c1C, the Potency was inconclusive: 23.1 µM [activator, single point].
